Measurements reported in PubChem BioAssay AID686938 (Drosophila RNAi Screening Center, 2013).

- Assay: 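Looking for CRAC channel components and the factors controlling them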 (primary screen)
- System: Drosophila S2R+ cells
- Reagent: long dsRNA against Drosophila genes, about 0.25 µg dsRNA per well, roughly 10,000 cells
- Time to read-out: 5 days of knock-down before the calcium assay
- Treatment: thapsigargin (SERCA pump blocker) to empty calcium stores; entry signal taken 4 min after adding it
- Detection: 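Duplicate raw fluo-4 intensities per well from a plate reader, at rest and four minutes after thapsigargin emptied calcium stores; entry-to-rest ratio filled for only some wells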
- Scale: calcium entry signal: higher = stronger calcium signal after store depletion; resting calcium signal: higher = higher resting calcium signal
- Units: calcium entry signal in fluorescence units; resting calcium signal in fluorescence units
- Hit rule: 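Called when the plate z-score of the entry-to-rest ratio, mean of duplicates, falls below −3; wells with low overall dye signal (Fmax z below −2) or more than five off-targets excluded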
- Calls: active = strongly reduced calcium entry; inactive = no strong reduction
The screen tested about 23,000 reagents; below is a random part of those with a known target gene and a result. In the full data, 75 (0.33%) were called active. 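Raw plate signals without normalisation; calls rest on plate z-scores that were not deposited; ratio present for only 364 wells.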 The numbers tell different reagents against one gene apart. Not stated in the record: the dose of the treatment.

With Dh44 (GeneID 41170) #1, what does the deposit list?
calcium entry signal, replicate 1: 1.79e7; calcium entry signal, replicate 2: 2.78e7; resting calcium signal, replicate 1: 9.08e6; resting calcium signal, replicate 2: 1.31e7; Outcome: inactive

What is on record for Dh44 (GeneID 41170) #2?
calcium entry signal, replicate 1: 4.04e7; calcium entry signal, replicate 2: 3.24e7; resting calcium signal, replicate 1: 1.97e7; resting calcium signal, replicate 2: 1.81e7; Outcome: inactive

How did the screen score CG42319 (GeneID 36473) #1?
calcium entry signal, replicate 1: 2.74e7; calcium entry signal, replicate 2: 4.70e7; resting calcium signal, replicate 1: 1.53e7; resting calcium signal, replicate 2: 1.87e7; Outcome: inactive

What did the screen give for CG42319 (GeneID 36473) #2?
calcium entry signal, replicate 1: 2.49e7; calcium entry signal, replicate 2: 4.62e7; resting calcium signal, replicate 1: 1.38e7; resting calcium signal, replicate 2: 1.90e7; Outcome: inactive

For CG42319 (GeneID 36473) #3, what was measured?
calcium entry signal, replicate 1: 3.82e7; calcium entry signal, replicate 2: 3.86e7; resting calcium signal, replicate 1: 1.92e7; resting calcium signal, replicate 2: 1.72e7; Outcome: inactive

Which result is listed for CG14191 (GeneID 32893)?
calcium entry signal, replicate 1: 4.49e7; calcium entry signal, replicate 2: 3.76e7; resting calcium signal, replicate 1: 2.12e7; resting calcium signal, replicate 2: 1.78e7; Outcome: inactive

For CG12118 (GeneID 31857), what was measured?
calcium entry signal, replicate 1: 3.17e7; calcium entry signal, replicate 2: 3.39e7; resting calcium signal, replicate 1: 1.57e7; resting calcium signal, replicate 2: 1.59e7; Outcome: inactive

For Patr-1 (GeneID 42058), how do the results read?
calcium entry signal, replicate 1: 2.52e7; calcium entry signal, replicate 2: 2.35e7; resting calcium signal, replicate 1: 1.43e7; resting calcium signal, replicate 2: 1.20e7; Outcome: inactive

What is on record for CG18179 (GeneID 39124)?
calcium entry signal, replicate 1: 3.14e7; calcium entry signal, replicate 2: 3.68e7; resting calcium signal, replicate 1: 1.54e7; resting calcium signal, replicate 2: 1.63e7; Outcome: inactive

Which result is listed for CG12402 (GeneID 41714)?
calcium entry signal, replicate 1: 3.75e7; calcium entry signal, replicate 2: 4.85e7; resting calcium signal, replicate 1: 1.81e7; resting calcium signal, replicate 2: 6.00e7; Outcome: inactive

For Nup62 (GeneID 36830), how do the results read?
calcium entry signal, replicate 1: 3.03e7; calcium entry signal, replicate 2: 2.95e7; resting calcium signal, replicate 1: 1.57e7; resting calcium signal, replicate 2: 1.70e7; Outcome: inactive

Taken from above.
Result of Dh44 (GeneID 41170) #2 under “Outcome”: inactive
Under “Outcome”, CG42319 (GeneID 36473) #3 shows inactive
Under “calcium entry signal, replicate 2”, CG14191 (GeneID 32893) is entered as 3.76e7

Next results:
Which result is listed for CG2991 (GeneID 33488)?
calcium entry signal, replicate 1: 3.62e7; resting calcium signal, replicate 1: 2.12e7; Outcome: inactive

How did the screen score CG18641 (GeneID 33429)?
calcium entry signal, replicate 1: 3.29e7; calcium entry signal, replicate 2: 2.98e7; resting calcium signal, replicate 1: 1.50e7; resting calcium signal, replicate 2: 1.35e7; Outcome: inactive

For ppk22 (GeneID 318593), how do the results read?
calcium entry signal, replicate 1: 3.71e7; calcium entry signal, replicate 2: 9.88e7; resting calcium signal, replicate 1: 1.76e7; resting calcium signal, replicate 2: 3.77e7; Outcome: inactive

For Vha16-2 (GeneID 39282), what does the deposit list?
calcium entry signal, replicate 1: 2.56e7; calcium entry signal, replicate 2: 3.95e7; resting calcium signal, replicate 1: 1.50e7; resting calcium signal, replicate 2: 1.66e7; Outcome: inactive

What is on record for CG32568 (GeneID 32659)?
calcium entry signal, replicate 1: 3.15e7; calcium entry signal, replicate 2: 3.23e7; resting calcium signal, replicate 1: 1.68e7; resting calcium signal, replicate 2: 1.40e7; Outcome: inactive

For Ir52b (GeneID 246631), what was measured?
calcium entry signal, replicate 1: 3.62e7; calcium entry signal, replicate 2: 3.89e7; resting calcium signal, replicate 1: 2.04e7; resting calcium signal, replicate 2: 1.72e7; Outcome: inactive

What did the screen give for rno (GeneID 38027)?
calcium entry signal, replicate 1: 3.76e7; calcium entry signal, replicate 2: 5.01e7; resting calcium signal, replicate 1: 1.86e7; resting calcium signal, replicate 2: 2.39e7; Outcome: inactive

With CG9121 (GeneID 33732), what does the deposit list?
calcium entry signal, replicate 1: 4.15e7; calcium entry signal, replicate 2: 4.12e7; resting calcium signal, replicate 1: 2.03e7; resting calcium signal, replicate 2: 1.83e7; Outcome: inactive

What is on record for CG10584 (GeneID 40324)?
calcium entry signal, replicate 1: 3.39e7; calcium entry signal, replicate 2: 4.96e7; resting calcium signal, replicate 1: 1.63e7; resting calcium signal, replicate 2: 2.18e7; Outcome: inactive

Which result is listed for SdhB (GeneID 35590) #1?
calcium entry signal, replicate 1: 4.38e7; calcium entry signal, replicate 2: 2.87e7; resting calcium signal, replicate 1: 2.18e7; resting calcium signal, replicate 2: 1.49e7; Outcome: inactive

For SdhB (GeneID 35590) #2, what does the deposit list?
calcium entry signal, replicate 1: 3.49e7; calcium entry signal, replicate 2: 3.06e7; resting calcium signal, replicate 1: 1.71e7; resting calcium signal, replicate 2: 1.45e7; Outcome: inactive

With Cyp316a1 (GeneID 38840), what does the deposit list?
calcium entry signal, replicate 1: 3.12e7; calcium entry signal, replicate 2: 4.11e7; resting calcium signal, replicate 1: 1.46e7; resting calcium signal, replicate 2: 1.78e7; Outcome: inactive

With PK2-R2 (GeneID 41638), what does the deposit list?
calcium entry signal, replicate 1: 2.87e7; calcium entry signal, replicate 2: 5.40e7; resting calcium signal, replicate 1: 1.50e7; resting calcium signal, replicate 2: 8.80e7; Outcome: inactive

What did the screen give for CG9970 (GeneID 38351)?
calcium entry signal, replicate 1: 4.23e7; calcium entry signal, replicate 2: 4.08e7; resting calcium signal, replicate 1: 2.09e7; resting calcium signal, replicate 2: 1.87e7; Outcome: inactive

For yem (GeneID 43439) #1, how do the results read?
calcium entry signal, replicate 1: 3.63e7; calcium entry signal, replicate 2: 5.86e7; resting calcium signal, replicate 1: 1.77e7; resting calcium signal, replicate 2: 2.39e7; Outcome: inactive

With yem (GeneID 43439) #2, what does the deposit list?
calcium entry signal, replicate 1: 3.48e7; calcium entry signal, replicate 2: 5.15e7; resting calcium signal, replicate 1: 1.71e7; resting calcium signal, replicate 2: 2.26e7; Outcome: inactive
